Measured values taken from patent US6030942A (The Trustees of the University of Pennsylvania, priority 1998, dated 2000).
Strings that start with PEPTIDE1 are HELM notation: dots part the residues, brackets hold end groups and non-standard residues.

Legend:
[1] = general procedure: Fmoc solid-phase peptide synthesis; 2-Chlorotrityl resin (1.3 mmol/g, Novabiochem); HBTU
[2] = general procedure: Fmoc solid-phase peptide synthesis; 2-chlorotrityl resin; HBTU; conditions: whole synthesis, scale 0.25 mmol

Substance PEPTIDE1{[ac].L.D.A.D.F}$$$$V2.0 has a cyclisation yield ([1]; cyclisation step) of 61.5%.
PEPTIDE1{F.T.L.D.A.D.F}$$$$V2.0 showed a step yield ([1]; coupling step) of 96.7%.
For PEPTIDE1{[ac].F.T.L.D.A.D.F}$$$$V2.0, the crude mass [2] was 0.40 g.
